No constants are given. Whether binding was seen depends on the method and setting. Binding seen in cells or lysates may run through a third protein. Some results given as binding are weak or reduced against the parent protein; the word gives no strength.
T1: Alpha fetoprotein (AFP), ectopically expressed (UniProt P02771)
T1 sequence: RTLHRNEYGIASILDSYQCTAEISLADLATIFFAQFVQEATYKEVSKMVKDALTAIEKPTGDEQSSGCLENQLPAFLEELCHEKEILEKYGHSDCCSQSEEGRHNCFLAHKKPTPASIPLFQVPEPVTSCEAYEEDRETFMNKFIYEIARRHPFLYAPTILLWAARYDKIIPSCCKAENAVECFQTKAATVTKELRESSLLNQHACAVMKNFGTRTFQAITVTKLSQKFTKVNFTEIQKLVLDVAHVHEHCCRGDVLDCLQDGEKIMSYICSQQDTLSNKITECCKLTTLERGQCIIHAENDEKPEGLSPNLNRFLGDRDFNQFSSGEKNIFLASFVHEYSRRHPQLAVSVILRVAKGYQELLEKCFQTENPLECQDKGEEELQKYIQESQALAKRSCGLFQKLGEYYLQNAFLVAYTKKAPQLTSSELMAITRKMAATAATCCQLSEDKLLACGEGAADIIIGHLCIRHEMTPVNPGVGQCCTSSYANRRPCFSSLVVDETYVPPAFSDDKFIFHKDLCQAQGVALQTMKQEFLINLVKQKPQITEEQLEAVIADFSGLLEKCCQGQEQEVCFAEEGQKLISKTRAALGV

The chains behind the UniProt entries cited, without tags or fusion partners.
UniProt Q15717: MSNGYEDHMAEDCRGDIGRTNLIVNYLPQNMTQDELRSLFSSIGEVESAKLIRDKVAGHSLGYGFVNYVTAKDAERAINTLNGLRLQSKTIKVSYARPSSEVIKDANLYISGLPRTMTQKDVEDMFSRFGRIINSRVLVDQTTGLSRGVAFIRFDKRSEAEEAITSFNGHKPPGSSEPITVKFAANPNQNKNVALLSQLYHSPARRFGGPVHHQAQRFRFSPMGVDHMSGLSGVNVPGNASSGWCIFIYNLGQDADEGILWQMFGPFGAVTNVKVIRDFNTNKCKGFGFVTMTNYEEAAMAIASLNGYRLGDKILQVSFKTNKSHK

T2: Alpha fetoprotein (AFP), endogenous (human (endogenous in HuH7)) (UniProt P02771)
T2 sequence: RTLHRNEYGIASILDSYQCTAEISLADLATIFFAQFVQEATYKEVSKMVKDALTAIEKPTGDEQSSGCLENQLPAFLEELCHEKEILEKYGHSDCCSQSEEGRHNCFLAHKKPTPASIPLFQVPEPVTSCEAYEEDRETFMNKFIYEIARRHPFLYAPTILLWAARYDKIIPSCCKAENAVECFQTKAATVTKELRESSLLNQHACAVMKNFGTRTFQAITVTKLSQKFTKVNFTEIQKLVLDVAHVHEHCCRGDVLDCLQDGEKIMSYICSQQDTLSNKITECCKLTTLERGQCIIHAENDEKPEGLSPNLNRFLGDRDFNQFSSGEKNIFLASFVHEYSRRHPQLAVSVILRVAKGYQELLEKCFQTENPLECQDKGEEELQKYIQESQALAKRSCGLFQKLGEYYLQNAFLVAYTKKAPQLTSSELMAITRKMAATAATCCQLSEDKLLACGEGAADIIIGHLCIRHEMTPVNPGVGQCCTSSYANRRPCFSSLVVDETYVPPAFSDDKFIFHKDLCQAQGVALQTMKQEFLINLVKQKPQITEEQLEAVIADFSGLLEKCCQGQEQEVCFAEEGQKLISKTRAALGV


Key:
[1] = target: T1, Alpha fetoprotein (AFP), ectopically expressed; test: co-IP; lysate of HLE cells stably transfected with the AFP expression plasmid; AFP precipitated, protein G-sepharose; buffer 50 mM Tris/HCl pH 7.5, 150 mM NaCl, 1% Triton X-100, 1 mM EDTA, 10% glycerol; Western blot; IgG as negative control
[2] = target: T2, Alpha fetoprotein (AFP), endogenous (human (endogenous in HuH7)); test: co-IP; lysate of HuH7 cells, endogenous proteins; anti-AFP or anti-HuR antibody (reciprocal), protein G-sepharose; buffer 50 mM Tris/HCl pH 7.5, 150 mM NaCl, 1% Triton X-100, 1 mM EDTA, 10% glycerol; Western blot; IgG as negative control
[3] = target: Human antigen R (HuR), endogenous (human (endogenous in HLE and HuH7)) (UniProt Q15717); test: as above

| Molecule | binding [1] | binding [2] | binding [3] |
| --- | --- | --- | --- |
| Human antigen R (HuR), endogenous (from UniProt Q15717 1-326) | binds | binds | – |
| Alpha fetoprotein (AFP), endogenous (protein, UniProt P02771 19-609) RTLHRNEYGIASILDSYQCTAEISLADLATIFFAQFVQEATYKEVSKMVKDALTAIEKPTGDEQSSGCLENQLPAFLEELCHEKEILEKYGHSDCCSQSEEGRHNCFLAHKKPTPASIPLFQVPEPVTSCEAYEEDRETFMNKFIYEIARRHPFLYAPTILLWAARYDKIIPSCCKAENAVECFQTKAATVTKELRESSLLNQHACAVMKNFGTRTFQAITVTKLSQKFTKVNFTEIQKLVLDVAHVHEHCCRGDVLDCLQDGEKIMSYICSQQDTLSNKITECCKLTTLERGQCIIHAENDEKPEGLSPNLNRFLGDRDFNQFSSGEKNIFLASFVHEYSRRHPQLAVSVILRVAKGYQELLEKCFQTENPLECQDKGEEELQKYIQESQALAKRSCGLFQKLGEYYLQNAFLVAYTKKAPQLTSSELMAITRKMAATAATCCQLSEDKLLACGEGAADIIIGHLCIRHEMTPVNPGVGQCCTSSYANRRPCFSSLVVDETYVPPAFSDDKFIFHKDLCQAQGVALQTMKQEFLINLVKQKPQITEEQLEAVIADFSGLLEKCCQGQEQEVCFAEEGQKLISKTRAALGV | – | – | binds |

From PMC7532541
